The target of assay [1] is T1, Integrin β3 subunit (rat (endogenous in resistance arteries)) (UniProt Q8R2H2).
T1 sequence: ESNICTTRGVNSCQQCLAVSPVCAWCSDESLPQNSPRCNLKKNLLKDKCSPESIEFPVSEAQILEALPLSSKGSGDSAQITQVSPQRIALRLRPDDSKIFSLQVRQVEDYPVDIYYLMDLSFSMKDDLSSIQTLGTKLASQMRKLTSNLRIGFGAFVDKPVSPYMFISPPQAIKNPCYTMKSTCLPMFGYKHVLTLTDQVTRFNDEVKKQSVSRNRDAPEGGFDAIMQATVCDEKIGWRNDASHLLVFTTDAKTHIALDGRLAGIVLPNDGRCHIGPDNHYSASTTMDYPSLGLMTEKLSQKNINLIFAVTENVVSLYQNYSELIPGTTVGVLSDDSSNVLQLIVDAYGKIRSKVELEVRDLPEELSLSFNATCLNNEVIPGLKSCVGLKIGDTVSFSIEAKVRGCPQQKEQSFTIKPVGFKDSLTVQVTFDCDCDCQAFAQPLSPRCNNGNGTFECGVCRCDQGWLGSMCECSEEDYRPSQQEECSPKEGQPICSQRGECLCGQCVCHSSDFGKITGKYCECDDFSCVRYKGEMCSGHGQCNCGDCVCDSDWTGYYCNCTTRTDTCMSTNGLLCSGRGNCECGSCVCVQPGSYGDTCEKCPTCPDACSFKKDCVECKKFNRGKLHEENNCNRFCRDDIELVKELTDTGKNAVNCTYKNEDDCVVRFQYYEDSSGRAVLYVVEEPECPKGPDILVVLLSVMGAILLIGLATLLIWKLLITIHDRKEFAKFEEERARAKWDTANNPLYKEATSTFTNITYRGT
The assay is described as follows: condition: only in extracts of arteries of cRGDfV-treated TGR(mRen2)27 rats; co-IP; 5 μg integrin antibody (β1 AB1952, β3 AB1932 or α5 aba5b) on 250 μg total RIPA extract of resistance arteries of 5-week-old cRGDfV-treated TGR(mRen2)27 rats (10 mg/kg twice daily for 5 days); agarose IgG/protein A; Western blot with FAK Y397 or Src Y418 antibody. A general note: Immunoblotting shows a protein as a band on a membrane.

Amino acid sequences for entries named in this document (tags omitted). Residues count along the entry.
UniProt P49134, residues 21-799: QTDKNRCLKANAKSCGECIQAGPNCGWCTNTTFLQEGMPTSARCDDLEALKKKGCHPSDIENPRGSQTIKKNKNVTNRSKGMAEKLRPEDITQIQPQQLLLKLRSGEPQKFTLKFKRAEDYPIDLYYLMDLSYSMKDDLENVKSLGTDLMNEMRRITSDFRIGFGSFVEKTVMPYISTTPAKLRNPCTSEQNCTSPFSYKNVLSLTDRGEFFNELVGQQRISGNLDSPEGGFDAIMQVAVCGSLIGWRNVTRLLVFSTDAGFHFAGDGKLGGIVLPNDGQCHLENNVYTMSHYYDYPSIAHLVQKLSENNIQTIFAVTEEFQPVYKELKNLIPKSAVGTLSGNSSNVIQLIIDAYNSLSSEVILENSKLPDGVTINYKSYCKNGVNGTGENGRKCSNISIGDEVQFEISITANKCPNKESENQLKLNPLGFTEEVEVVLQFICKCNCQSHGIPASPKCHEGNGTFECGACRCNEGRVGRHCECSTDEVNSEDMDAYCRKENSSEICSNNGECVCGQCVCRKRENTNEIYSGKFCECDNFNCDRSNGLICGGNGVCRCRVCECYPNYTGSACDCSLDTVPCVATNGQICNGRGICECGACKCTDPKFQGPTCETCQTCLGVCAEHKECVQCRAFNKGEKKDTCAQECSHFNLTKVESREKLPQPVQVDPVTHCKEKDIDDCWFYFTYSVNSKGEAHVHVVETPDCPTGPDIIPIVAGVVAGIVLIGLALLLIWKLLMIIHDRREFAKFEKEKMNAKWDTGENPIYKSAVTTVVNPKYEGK
UniProt O35346: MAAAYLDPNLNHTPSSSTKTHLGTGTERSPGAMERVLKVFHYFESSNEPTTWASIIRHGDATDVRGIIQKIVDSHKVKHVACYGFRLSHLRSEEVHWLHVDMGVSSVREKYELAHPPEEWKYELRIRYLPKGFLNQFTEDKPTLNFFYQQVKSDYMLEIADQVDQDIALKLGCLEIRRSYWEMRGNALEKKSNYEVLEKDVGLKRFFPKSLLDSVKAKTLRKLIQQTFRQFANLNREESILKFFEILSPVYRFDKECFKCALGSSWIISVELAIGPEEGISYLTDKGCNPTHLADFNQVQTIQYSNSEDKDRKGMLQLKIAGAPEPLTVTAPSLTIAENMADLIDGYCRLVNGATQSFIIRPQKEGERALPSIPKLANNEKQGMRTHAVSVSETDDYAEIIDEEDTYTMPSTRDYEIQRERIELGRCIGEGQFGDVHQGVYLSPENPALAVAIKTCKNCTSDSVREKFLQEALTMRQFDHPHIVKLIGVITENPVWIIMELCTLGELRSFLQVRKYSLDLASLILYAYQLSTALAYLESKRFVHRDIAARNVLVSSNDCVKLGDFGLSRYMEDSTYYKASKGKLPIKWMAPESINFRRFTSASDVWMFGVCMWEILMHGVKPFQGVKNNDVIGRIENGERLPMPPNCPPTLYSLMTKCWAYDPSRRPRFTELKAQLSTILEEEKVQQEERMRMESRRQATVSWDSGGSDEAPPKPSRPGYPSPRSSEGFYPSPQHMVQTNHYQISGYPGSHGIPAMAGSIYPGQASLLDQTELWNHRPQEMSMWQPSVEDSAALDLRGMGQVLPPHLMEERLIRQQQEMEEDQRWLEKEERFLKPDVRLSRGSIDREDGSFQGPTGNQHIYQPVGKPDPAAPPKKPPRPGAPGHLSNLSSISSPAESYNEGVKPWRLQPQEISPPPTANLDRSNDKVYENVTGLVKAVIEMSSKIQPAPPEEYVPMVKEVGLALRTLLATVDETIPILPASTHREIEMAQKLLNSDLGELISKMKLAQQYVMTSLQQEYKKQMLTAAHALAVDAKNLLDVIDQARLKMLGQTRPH

Assay [2] addresses T1, Integrin β3 subunit (rat (endogenous in resistance arteries)). The assay is described as follows: co-IP; 5 μg integrin antibody (β1 AB1952, β3 AB1932 or α5 aba5b) on 250 μg total RIPA extract of resistance arteries of normotensive SD rats; agarose IgG/protein A; Western blot with FAK Y397 or Src Y418 antibody.
Assay [3] addresses Integrin β1 subunit (general subpopulation of β1 integrins) (rat (endogenous in resistance arteries)) (UniProt P49134). The assay can be described thus: co-IP; 5 μg integrin antibody (β1 AB1952, β3 AB1932 or α5 aba5b) on 250 μg total RIPA extract of resistance arteries of 5-week-old cRGDfV-treated TGR(mRen2)27 rats (10 mg/kg twice daily for 5 days); agarose IgG/protein A; Western blot with FAK Y397 or Src Y418 antibody.

Assay [4] shares this target. The assay can be described thus: condition: only in extracts of arteries of normotensive SD rats; co-IP; 5 μg integrin antibody (β1 AB1952, β3 AB1932 or α5 aba5b) on 250 μg total RIPA extract of resistance arteries of normotensive SD rats; agarose IgG/protein A; Western blot with FAK Y397 or Src Y418 antibody.
Assay [5] shares this target. The assay can be described thus: co-IP; 5 μg integrin antibody (β1 AB1952, β3 AB1932 or α5 aba5b) on 250 μg total RIPA extract of resistance arteries of hypertensive TGR(mRen2)27 rats; agarose IgG/protein A; Western blot with FAK Y397 or Src Y418 antibody.
Assay [6] addresses T1, Integrin β3 subunit (rat (endogenous in resistance arteries)). The description is as above.

Results are given in words; binding and its absence hold for the method and conditions named. Binding seen in cells or lysates may run through a third protein. Some binding calls cover weakened binding; strength is not graded here.

For the substance “Phosphorylated (p)FAK Y397 (focal adhesion kinase phosphorylated at tyrosine 397) (from UniProt O35346 1-1055) (enzyme)”, the binding entry in assay [1] is reported as “no binding”; in assay [2], “binds”; in assay [3], “binds”; in assay [4], “no binding”; in assay [5], “binds”; in assay [6] it was “binds”.

Values taken from paper PMC4224252.
